Data: PubChem BioAssay AID1347426 (Functional Genomics Laboratory (NCATS/FGL), 2020)
Out of some 31,000 sequences screened, about 1,400 (4.5%) were called active.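 The calls were made as follows: active = median seed-adjusted z-score above 1 or below -1; inactive = the rest.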 Some of the results follow.

test: Novel Modifiers of Survival Motor Neuron (SMN) Protein: Gene Identification via Genome-wide siRNA Screen; settings: HEK293T SMN2-luciferase reporter, siRNA knockdown, 72 h; actives lie on both sides;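 also: luminescence tracks full-length SMN protein made from the SMN2 reporter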
Procedure, shortened: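 Steps: spot 1 pmol siRNA, add Lipofectamine RNAiMax in serum-free DMEM, seed HEK293T SMN2–luciferase reporter cells; incubate 72 h at 37 °C; add ONE-Glo; normalize luminescence to control siRNA, log10, MAD. Candidates: |MAD| > 1.0.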

Sequence	median seed-adjusted z-score
CAUCGUAACUUUAGAUGAATT against KCNIP1	inactive: -0.0767
UGUUCAUCUAGUUUCUAUUTT against MRGPRX1	inactive: -0.188
GCAGGAGCUUUACUAGUUUTT against RAB2A	inactive: -0.038
GCAUUGUCGUGGAAGUUCUTT against TMCO3	inactive: -0.441
GAGCAUAGUUUUACAGUCATT against PPM1L	inactive: 0.4
CACUCUGAGGAGUUACUAATT against ITGAE	inactive: -0.0378
CGAUGUAAUUGUCAACAUATT against HTRA4	inactive: 0.838
GGCUCAAACUGGGAGUCAATT against POLDIP3	inactive: 0.108
CGACUCUUGUCUACAAGCATT against AIRE	inactive: 0.308
GGCUAUGGCGUUUCCAGCATT against HNRNPA1L2	inactive: 0.732
CGCUGUAUCUGGAGAGGUUTT against B4GALNT4	inactive: -0.567
GCACCAUCUGAAAACAACATT against UBE2B	inactive: 0.333
GGACAUAGGAGGAGAUGCATT against 9-Mar	inactive: 0.261
GGAAGGGACUAUGAACCGATT against PDZD2	inactive: -0.00167
CAGACGUAGUAAUCGAUGUTT against DHX57	inactive: -0.138
CAGCUAAGAAAAGACCAUATT against ZNF92	inactive: -0.375
CAAGACUUCGAGGCAGAUATT against SCAMP5	inactive: -0.303
GAACUCACCCAGACAAACATT against CREB5	inactive: -0.0542
CUGCUGUUGUUACCGGAAATT against RPGR	inactive: 0.1
CCAACAUGCUAAUCACCUATT against MAP3K12	inactive: -0.6
GGCUGUACCAUUCAACUGUTT against MAP1A	inactive: -0.17
GGAGUUUCGGCCUCACUGATT against NME6	inactive: -0.304
CUAUAAGAGAUGUCCUAAATT against LRPPRC	inactive: -0.373

Sequence	median seed-adjusted z-score
ACAUGCCUGUGAUCGUCAATT against SOX13	inactive: 0.867
GGGUAUCCCUGGUCAGUAATT against BCAS2	inactive: -0.639
CGCCUACGUCGUGUACUAUTT against LRRC3	inactive: -0.0448
GAGACAAGCUCAACGAGAATT against NOP14	inactive: -0.344
CAUUGUCGGUGUUUCUGCATT against CGA	inactive: 0.0904
GCUGAGUUCUUUCGACCUATT against PEX3	inactive: 0.142
GGUCUUUGACGUGGUCUUUTT against SBK1	inactive: 0.0587
GGGUAUCACUGGAGUCUGATT against NDUFA1	inactive: 0.182
GGCUCAAGAAGCACGCGUATT against CRLF1	inactive: -0.45
CCACCAAUCACGAACCUAATT against IL3RA	inactive: -0.951
UGCAGCCUCUCCAAACUUATT against SP6	inactive: -0.176
CCGAUAUUCUUAUAUAUGUTT against ARL3	inactive: 0.551
GGCUGUACAGUUAUAUCAATT against NAPG	inactive: 0.0128
AGGUGUUCAUCGGCGUAAATT against GRHL3	inactive: -0.0434
GAGUUUAGAGAGAAAAUCATT against TRIM13	inactive: 0.712
AGUGGGAAGUCGUCACUUUTT against ZNF137	inactive: 0.0526
CCAUUAACAUCGAUAUCAATT against GDPD1	inactive: 0.527
GGCUAUAGAAGAGACCUCATT against FCRL2	inactive: -0.294
GCAUCGGCACCAUCGUCUATT against ULK1	inactive: -0.214
CCUUGCAAGAUGACGAUUATT against ZFYVE26	inactive: 0.0495
CCGGGUUUUUAAUCGCUUATT against TTLL7	inactive: 0.00109
GCACAUGUUUGGAGGAUUUTT against ZNRF2	inactive: 0
GCAGCUACCUCAGGAAUGATT against MAP4K2	inactive: -0.439

Fetched one by one from above, 2 records:
Sequence	median seed-adjusted z-score
GGCUGUACAGUUAUAUCAATT against NAPG	inactive: 0.0128
GCUGAGUUCUUUCGACCUATT against PEX3	inactive: 0.142

(further entries)

Sequence	median seed-adjusted z-score
GCAACGAUCUGAAAGUCAUTT against ECHDC3	inactive: 0.378
CAUGGACAUUGACAAGGUATT against CHMP4A	inactive: -0.209
GGAAAUCUUUUAUCCGAAATT against ZNF530	inactive: 0.0381
GAGUACUCAUAGGAUUUGATT against WIF1	inactive: -0.521
AGGGAGACCUGGAACCUGATT against AIPL1	inactive: -0.259
GGACUUCCACCGUAAGGUATT against RASD2	inactive: 0.0673
CGAAGGAUCUUGACGAGGATT against ABCG8	inactive: -0.0233
CUAGAGUAAUUGAAGAUAATT against LYN	inactive: -0.178
GGUCCUGAGUGUGAUGUCATT against IL20RB	inactive: -0.413
GGAAAUCUCGUGAUUUUCATT against TEAD1	active: 1.31
GGAUGAGAAAACUCGCUUUTT against COPA	inactive: -0.807
UGAAGAUCCAAGUGCGAAATT against FCER1G	inactive: 0.136
GGAGAAGUCAGAUUAUGUATT against SOX1	inactive: 0.415
GACUGAACCUUGGGCAGAATT against SIGLEC9	inactive: 0
GCGUGGUUUUGGUCGACUATT against PTPRE	inactive: 0.619
CCUAUUUAAUCGACAGAGATT against KCTD5	inactive: -0.748
GCAGAAAUAGGUUACCGGATT against TTK	inactive: -0.658
GGACAUACAAAGAGCCUAATT against ELOVL4	inactive: 0.166
GAUUCGAUCUAAUAACAGUTT against ZRANB3	inactive: 0.0516
ACAAGGUGGAGUUUCUUAATT against KCNC3	inactive: 0.279
GCAGAGGAGUCAAUGCUAUTT against ARL8B	inactive: -0.477
GCUCUAUUGUGGACGAUGATT against IQGAP2	inactive: 0.194
